Experimental data as given in the RNAGym collection of RNA variant scans (doi:10.1126/science.aae0568).
Variants at the floor of the assay are shown more often than the library holds them.

B1: tRNA (parent)
chain: GUUCCGUUGGCGUAAUGGUAACGCGUCUCCCUCCUAAGGAGAAGACUGCGGGUUCGAGUCCCGUACGGAACG

Variants of: B1
Assay: yeast fitness relative to wild type (ratio to wild type); higher = fitter; tRNA-Arg(CCU), competitive growth, 37 C, YPD
Procedure, shortened: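 A pool of Saccharomyces cerevisiae strains, each with a tRNA-Arg(CCU) gene variant at the native genomic locus, was competed in YPD at 37°C for 24 hours across six parallel replicates. The variants had been chemically synthesised at a 3% per-site mutation rate over 69 sites, and gene amplicons before and after competition were read by 100-nucleotide paired-end sequencing. Darwinian fitness relative to wild type rested on changes in genotype frequencies. Genotypes required ≥ 100 starting reads, and estimates < 0.5 were set to 0.5.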

**Q.** For G6C C31U C34G, which yeast fitness is on record?
**A.** The yeast fitness was no more than 0.5.

**Q.** For G6C C33G A70G, which yeast fitness is on record?
**A.** Its yeast fitness is no more than 0.5.

**Q.** Which yeast fitness does the source give for G6C C34U G52C C66G here?
**A.** The yeast fitness was no more than 0.5.

**Q.** Which yeast fitness does the source give for G6C G9A A21U U28G C34U A45C here?
**A.** Its yeast fitness is no more than 0.5.

**Q.** With G6C G9C C29A C34U as the variant, how does the yeast fitness read?
**A.** Its yeast fitness is no more than 0.5.

**Q.** For G6C G10C A69C, which yeast fitness is on record?
**A.** Its yeast fitness is 0.589.

**Q.** Which yeast fitness does the source give for G6C G17A C29A C34G C55A here?
**A.** Its yeast fitness is no more than 0.5.

**Q.** With G6C G17A C30U A42C G50A as the variant, how does the yeast fitness read?
**A.** The yeast fitness was no more than 0.5.

**Q.** Which yeast fitness does the source give for G6C G18C A21G A40U C49U here?
**A.** Its yeast fitness is no more than 0.5.

**Q.** With G6C G23C C24A C61U as the variant, how does the yeast fitness read?
**A.** The yeast fitness was no more than 0.5.

**Q.** Which yeast fitness does the source give for G6C U7A C34U C61U here?
**A.** The yeast fitness was 0.658.

**Q.** Which yeast fitness does the source give for G6C U7C C24U C29G C49A G68A here?
**A.** The yeast fitness was no more than 0.5.

**Q.** With G6C U7G G17C C60G A70U as the variant, how does the yeast fitness read?
**A.** Its yeast fitness is no more than 0.5.

**Q.** For G6C U8C G50A G67C A70U, which yeast fitness is on record?
**A.** Its yeast fitness is no more than 0.5.

**Q.** Which yeast fitness does the source give for G6C U13A A20U A21G here?
**A.** The yeast fitness was no more than 0.5.

**Q.** For G6C U13G G18A C55U, which yeast fitness is on record?
**A.** Its yeast fitness is no more than 0.5.

**Q.** Which yeast fitness does the source give for G6C U16G A20C G25A A43U C55U here?
**A.** Its yeast fitness is no more than 0.5.

**Q.** With G6C U16G C27U G56A C60G as the variant, how does the yeast fitness read?
**A.** The yeast fitness was no more than 0.5.

**Q.** For G6C U35C U59C, which yeast fitness is on record?
**A.** The yeast fitness was no more than 0.5.

**Q.** Which yeast fitness does the source give for G6C U47A C60G here?
**A.** Its yeast fitness is no more than 0.5.

**Q.** For G6U U35G A69U, which yeast fitness is on record?
**A.** Its yeast fitness is 1.03.

**Q.** With U7A A14C G25A C30G as the variant, how does the yeast fitness read?
**A.** The yeast fitness was no more than 0.5.

**Q.** Which yeast fitness does the source give for U7A A20C U28C A36G G58C here?
**A.** The yeast fitness was no more than 0.5.

**Q.** Which yeast fitness does the source give for U7A A20G G58U here?
**A.** The yeast fitness was no more than 0.5.

**Q.** With U7A A21G U28A C29U as the variant, how does the yeast fitness read?
**A.** The yeast fitness was no more than 0.5.

**Q.** For U7A A21G U32C U59G C66U A70C, which yeast fitness is on record?
**A.** Its yeast fitness is no more than 0.5.

**Q.** Which yeast fitness does the source give for U7A A36U C55U here?
**A.** The yeast fitness was no more than 0.5.

**Q.** With U7A C27U G58C C61U as the variant, how does the yeast fitness read?
**A.** The yeast fitness was no more than 0.5.

**Q.** Which yeast fitness does the source give for U7A C29U A37C U47C U53A C55U C60A here?
**A.** The yeast fitness was no more than 0.5.

**Q.** Which yeast fitness does the source give for U7A C29U A57C G68U A69U here?
**A.** The yeast fitness was no more than 0.5.

**Q.** With U7A C29U G58A as the variant, how does the yeast fitness read?
**A.** The yeast fitness was no more than 0.5.

**Q.** For U7A C34A G44A C46U, which yeast fitness is on record?
**A.** The yeast fitness was no more than 0.5.

**Q.** With U7A G10U as the variant, how does the yeast fitness read?
**A.** The yeast fitness was 0.614.

**Q.** For U7A G12A A14C G25A, which yeast fitness is on record?
**A.** The yeast fitness was no more than 0.5.

**Q.** For U7A G51A G52A A70G, which yeast fitness is on record?
**A.** Its yeast fitness is no more than 0.5.

**Q.** For U7A U8A G10C C27G C34G A36G C55U G63A, which yeast fitness is on record?
**A.** The yeast fitness was no more than 0.5.

**Q.** With U7A U13C A20C as the variant, how does the yeast fitness read?
**A.** The yeast fitness was no more than 0.5.

**Q.** For U7A U19A U32C G68A A70G, which yeast fitness is on record?
**A.** Its yeast fitness is no more than 0.5.

**Q.** For U7A U19C C27G, which yeast fitness is on record?
**A.** Its yeast fitness is no more than 0.5.

**Q.** For U7A U19C U28C C29G A57U, which yeast fitness is on record?
**A.** Its yeast fitness is no more than 0.5.

**Q.** Which yeast fitness does the source give for U7A U19G A21U G68U here?
**A.** The yeast fitness was no more than 0.5.

**Q.** For U7A U47A G58A, which yeast fitness is on record?
**A.** The yeast fitness was no more than 0.5.

**Q.** With U7C A14G A37U G63A as the variant, how does the yeast fitness read?
**A.** Its yeast fitness is no more than 0.5.

**Q.** Which yeast fitness does the source give for U7C A15G G63C here?
**A.** The yeast fitness was no more than 0.5.

**Q.** With U7C A15G G68C as the variant, how does the yeast fitness read?
**A.** The yeast fitness was no more than 0.5.

**Q.** For U7C A20C A37C U53C G63C, which yeast fitness is on record?
**A.** Its yeast fitness is no more than 0.5.

**Q.** Which yeast fitness does the source give for U7C A36C G63U here?
**A.** The yeast fitness was no more than 0.5.

**Q.** For U7C A40G C49G, which yeast fitness is on record?
**A.** Its yeast fitness is no more than 0.5.

**Q.** Which yeast fitness does the source give for U7C C11U A36C A57U C61A C66G here?
**A.** The yeast fitness was no more than 0.5.

**Q.** For U7C C24A, which yeast fitness is on record?
**A.** The yeast fitness was 0.623.

**Q.** With U7C C24G C61U C66G G67A as the variant, how does the yeast fitness read?
**A.** Its yeast fitness is no more than 0.5.

**Q.** With U7C C27A C46A G51A U53A C62A G68A as the variant, how does the yeast fitness read?
**A.** The yeast fitness was no more than 0.5.

**Q.** With U7C C30A C60A as the variant, how does the yeast fitness read?
**A.** Its yeast fitness is no more than 0.5.

**Q.** Which yeast fitness does the source give for U7C C31G C34G A42U C66A here?
**A.** The yeast fitness was no more than 0.5.

**Q.** With U7C C31G C34U as the variant, how does the yeast fitness read?
**A.** Its yeast fitness is no more than 0.5.

**Q.** With U7C C55G G63U A69C as the variant, how does the yeast fitness read?
**A.** The yeast fitness was no more than 0.5.

**Q.** With U7C G12C A20C G48A C49G as the variant, how does the yeast fitness read?
**A.** The yeast fitness was no more than 0.5.

**Q.** Which yeast fitness does the source give for U7C G12C U32A G39A C49G G58C here?
**A.** The yeast fitness was no more than 0.5.

**Q.** Which yeast fitness does the source give for U7C G18A C22G C62U A70G here?
**A.** The yeast fitness was no more than 0.5.

**Q.** For U7C G41A A42C G50C G63A A70G, which yeast fitness is on record?
**A.** Its yeast fitness is 0.555.

**Q.** For U7C U8A A20G C24G U64C, which yeast fitness is on record?
**A.** Its yeast fitness is no more than 0.5.

**Q.** With U7C U8G C30U C49A as the variant, how does the yeast fitness read?
**A.** The yeast fitness was no more than 0.5.

**Q.** With U7C U16C G23C G68A as the variant, how does the yeast fitness read?
**A.** The yeast fitness was no more than 0.5.

**Q.** For U7C U28A C31U C55G C66U, which yeast fitness is on record?
**A.** The yeast fitness was no more than 0.5.

**Q.** With U7C U32G as the variant, how does the yeast fitness read?
**A.** The yeast fitness was 0.576.

**Q.** With U7G A14G C22U G38A C49A C55A A69C as the variant, how does the yeast fitness read?
**A.** Its yeast fitness is no more than 0.5.

**Q.** For U7G A14G C22U G38A C62U, which yeast fitness is on record?
**A.** Its yeast fitness is no more than 0.5.

**Q.** For U7G A15U G25U U32A G41A C61U, which yeast fitness is on record?
**A.** The yeast fitness was no more than 0.5.

**Q.** With U7G A42C G48A G50C A69C as the variant, how does the yeast fitness read?
**A.** The yeast fitness was no more than 0.5.

**Q.** With U7G C11G C34U G41A A65C C66U as the variant, how does the yeast fitness read?
**A.** Its yeast fitness is no more than 0.5.

**Q.** With U7G C11G U19C C34U G41A as the variant, how does the yeast fitness read?
**A.** The yeast fitness was no more than 0.5.

**Q.** Which yeast fitness does the source give for U7G C11G U32A U53G C66U here?
**A.** Its yeast fitness is no more than 0.5.

**Q.** With U7G C22U G39C as the variant, how does the yeast fitness read?
**A.** The yeast fitness was no more than 0.5.

**Q.** For U7G C27G U28G A57U, which yeast fitness is on record?
**A.** The yeast fitness was no more than 0.5.

**Q.** Which yeast fitness does the source give for U7G C30U A36G C55G here?
**A.** The yeast fitness was no more than 0.5.

**Q.** For U7G G9A C31G A36G A42U C60G, which yeast fitness is on record?
**A.** The yeast fitness was no more than 0.5.

**Q.** For U7G G10C C24G C31G C33G A43C, which yeast fitness is on record?
**A.** Its yeast fitness is no more than 0.5.

**Q.** Which yeast fitness does the source give for U7G G25A C49G here?
**A.** The yeast fitness was 0.542.

**Q.** With U7G G41A C49A C66A as the variant, how does the yeast fitness read?
**A.** Its yeast fitness is no more than 0.5.

**Q.** For U8A A14C C31A, which yeast fitness is on record?
**A.** Its yeast fitness is 0.571.

**Q.** For U8A A14C C31A G41C A43G C49A G56A, which yeast fitness is on record?
**A.** The yeast fitness was no more than 0.5.

**Q.** Which yeast fitness does the source give for U8A A14C C49G G63C here?
**A.** Its yeast fitness is no more than 0.5.

**Q.** With U8A A14G U59G as the variant, how does the yeast fitness read?
**A.** Its yeast fitness is no more than 0.5.
